The values below come from paper doi:10.1101/2020.01.11.902726.

The chains behind the UniProt entries cited, without tags or fusion partners.
UniProt P32121: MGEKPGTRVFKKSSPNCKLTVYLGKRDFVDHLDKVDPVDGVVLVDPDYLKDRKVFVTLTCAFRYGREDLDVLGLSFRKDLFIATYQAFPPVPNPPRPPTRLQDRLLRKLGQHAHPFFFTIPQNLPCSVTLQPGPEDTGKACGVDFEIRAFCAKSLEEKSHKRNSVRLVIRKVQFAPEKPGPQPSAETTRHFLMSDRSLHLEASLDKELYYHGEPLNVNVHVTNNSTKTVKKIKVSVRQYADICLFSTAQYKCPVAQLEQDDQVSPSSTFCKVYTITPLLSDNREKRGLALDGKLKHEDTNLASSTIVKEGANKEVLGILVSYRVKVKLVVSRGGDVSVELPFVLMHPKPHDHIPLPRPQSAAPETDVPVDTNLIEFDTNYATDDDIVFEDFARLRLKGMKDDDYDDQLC

No constants are given. Whether binding was seen depends on the method and setting. Binding seen in cells or lysates may run through a third protein. Some entries that bind do so weakly or less than the wild type. Tags and fused reporters may be left off the sequences shown.

The target of the assay is T1, wild type human FFA2 tagged with eYFP at its C terminus (human) (UniProt O15552).
T1 sequence: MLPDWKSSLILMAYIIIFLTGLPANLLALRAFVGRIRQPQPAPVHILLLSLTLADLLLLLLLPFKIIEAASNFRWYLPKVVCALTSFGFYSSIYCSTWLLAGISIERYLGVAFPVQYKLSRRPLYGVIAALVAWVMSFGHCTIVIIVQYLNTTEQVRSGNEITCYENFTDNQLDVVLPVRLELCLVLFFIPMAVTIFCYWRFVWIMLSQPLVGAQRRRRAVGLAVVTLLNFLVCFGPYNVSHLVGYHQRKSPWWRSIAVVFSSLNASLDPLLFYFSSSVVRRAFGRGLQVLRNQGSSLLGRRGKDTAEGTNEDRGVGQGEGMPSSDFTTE
Kind of assay: FRET or BRET.

In the case of “β-arrestin-2-Renilla-luciferase (from UniProt P32121 1-409)”, the binding entry was “binds”.
